Data published in patent US20230303561A1, “PYRIMIDINONE DERIVATIVE, PREPARATION METHOD THEREOF AND USE THEREOF IN RESISTING MYCOBACTERIUM TUBERCULOSIS INFECTION” (INSTITUTE OF MEDICINAL BIOTECHNOLOGY, CHINESE ACADEMY OF …, priority 2020, published 2023).
At least one structure is not confirmed: it was looked up by name or label, or the drawing left a doubt.

System: MTB H37Rv
Experiment: Bacteriostasis experiment: MIC in 96-well plate, two-fold dilution method
Format: cell-based, Mycobacterium tuberculosis
Details: MTB H37Rv (ATCC 27294), 7H9 medium, 37° C., about 10 days

For `NNC(=O)c1ccncc1` [INH, isonicotinyl hydrazide, reference compound], which “Inhibitory activity against Mycobacterium tuberculosis, MIC, MTB H37Rv” value is on record?
Its value is 0.125-0.0625.
